Results published in PubChem BioAssay AID488907 (Broad Institute, 2010).
Inconclusive results, whose numbers are uncertain, are shown with a selection of clear calls. Calls of active or inactive are those of the source.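 The calls were made as follows: active = fluorescence drops from fewer live microbes, with half-maximal dose at most ten times the top valid tested dose; inconclusive = flat curve with 30 to 70% inhibition, or poor fit; inactive = the rest, including signal rises.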

Test: reversal of fluconazole resistance in C. albicans, dose response, CaCi-2 strain, Alamar Blue, dry powder, set 3 (AID 488907)
Conditions: C. albicans CaCi-2 (fluconazole-resistant clinical isolate) + fluconazole, 48 h; at 6 µM (top of the series)

Row | Compound | activity change, negative = inhibition
1 | O=C(c1ccccc1)N1CCN(c2ccccn2)CC1 | inconclusive: -40.9%
2 | O=C(c1ccccc1Cl)N1CCN(c2ccccn2)CC1 | inconclusive: -64.3%
3 | Cc1cccc(N2CCN(C(=O)c3ccc(Cl)cc3)CC2)n1 | inactive: -6.9%
4 | O=C(c1ccc(Cl)cc1)N1CCN(c2cnccn2)CC1 | inactive: -15.4%
5 | c1ccc(N2CCNCC2)nc1 | inconclusive: -77.7%
